# Source: PubChem BioAssay AID254 (DTP/NCI, 2004)
# The list does not hold the whole screen: it is rich in T/C values a quarter to a half above the control, in often repeated tests (any T/C) and in doses without a T/C. Other doses and runs of a compound stand elsewhere. T/C: endpoint of the treated group in % of that of the vehicle group. Some entries give survivors of the animals treated and no T/C: the source holds a T/C of zero for them, seemingly a mark for toxic or unscored doses. Survivors were counted at the toxicity check, usually on the fifth day, unless a day is given; later deaths do not show. Schedules are NCI's codes, read here as Q, the interval in days (D) or hours (H), X, the number of doses. Where survival is the endpoint, the PubChem record calls one and a half times the control and up active, and a quarter to a half above the control has no call in these data; cut-offs in other NCI protocols can differ. Counts like (3×) give the number of equal values in this list. Some doses were run more than once; the values are given in rising order.
# Tested on: L1210 leukemia iv in BDF1 mice, survival T/C
# Assay: NCI In Vivo Anticancer Drug Screen. Data for tumor model L1210 Leukemia (intravenous) in B6D2F1 (BDF1) mice
# Settings: T/C endpoint: mean survival time, higher T/C = longer survival
# Description: The antitumor activity of compounds was measured in mice bearing transplantable tumors. Survival or tumor size were measured and the results are expressed as the measurement made in the treated group (T) divided by the measurement made in the vehicle treated control group (C). The tumor model used in this assay is L1210 Leukemia (intravenous) in B6D2F1 (BDF1) mice
smiles,measurement,setting,value
CC(=O)OC1CCC(NC(=O)N(CCF)N=O)CC1 (stereo not drawn),survivor count,"dose: 48.0 mg/kg/injection, schedule: Q01DX001 (oral), vehicle: other",6 of 10
same,survivor count,"dose: 54.0 mg/kg/injection, schedule: Q01DX001 (ip), vehicle: other",6 of 10
same,survivor count,"dose: 72.0 mg/kg/injection, schedule: Q01DX001 (oral), vehicle: other",2 of 10
same,survivor count,"dose: 81.0 mg/kg/injection, schedule: Q01DX001 (ip), vehicle: other",1 of 10
same,survivor count,"dose: 108.0 mg/kg/injection, schedule: Q01DX001 (oral), vehicle: other",1 of 10
same,survivor count,"dose: 162.0 mg/kg/injection, schedule: Q01DX001 (oral), vehicle: other",0 of 10
O=NN(CCCl)C(=O)NC1CCC(NC(=O)N(CCCl)N=O)CC1 (stereo not drawn),T/C,"dose: 20.0 mg/kg/injection, schedule: Q01DX001 (ip), vehicle: saline with Tween-80",140 % of control
same,T/C,"dose: 30.0 mg/kg/injection, schedule: Q01DX001 (ip), vehicle: saline with Tween-80",134 and 138 % of control
same,T/C,"dose: 38.0 mg/kg/injection, schedule: Q01DX001 (oral), vehicle: other",131 % of control
same,T/C,"dose: 44.0 mg/kg/injection, schedule: Q01DX001 (ip), vehicle: saline with Tween-80",146 % of control
O=NN(CCCl)C(=O)NC1CCC(=O)NC1=O (stereo not drawn),T/C,"dose: 2.1 mg/kg/injection, schedule: Q01DX001 (ip), vehicle: other",127 % of control (2×)
O=NN(CCCl)C(=O)NC1CCCCC1,T/C,"dose: 7.0 mg/kg/injection, schedule: Q01DX001 (ip), vehicle: Klucel (hydroxypropylcellulose) (HPC), evaluated on day 3",141 and 145 % of control
same,T/C,"dose: 7.0 mg/kg/injection, schedule: Q01DX001 (ip), vehicle: Klucel (hydroxypropylcellulose) (HPC), evaluated on day 60",141 and 146 % of control
same,T/C,"dose: 10.0 mg/kg/injection, schedule: Q01DX001 (ip), vehicle: carboxymethylcellulose (CMC)",132 and 134 % of control
same,T/C,"dose: 14.0 mg/kg/injection, schedule: Q01DX001 (ip), vehicle: Klucel (hydroxypropylcellulose) (HPC), evaluated on day 3","145, 160, 176, 202, 235, 242 % of control"
same,T/C,"dose: 14.0 mg/kg/injection, schedule: Q01DX001 (ip), vehicle: Klucel (hydroxypropylcellulose) (HPC), evaluated on day 60","160, 176, 202, 235, 242 % of control"
same,T/C,"dose: 16.6 mg/kg/injection, schedule: Q01DX001 (ip), vehicle: carboxymethylcellulose (CMC)",147 % of control
same,T/C,"dose: 21.0 mg/kg/injection, schedule: Q01DX001 (ip), vehicle: Klucel (hydroxypropylcellulose) (HPC), evaluated on day 3",197 and 281 % of control
same,T/C,"dose: 21.0 mg/kg/injection, schedule: Q01DX001 (ip), vehicle: Klucel (hydroxypropylcellulose) (HPC), evaluated on day 60",198 and 281 % of control
same,T/C,"dose: 25.0 mg/kg/injection, schedule: Q01DX001 (ip), vehicle: carboxymethylcellulose (CMC), evaluated on day 45","218, 247, 309 % of control"
same,T/C,"dose: 25.0 mg/kg/injection, schedule: Q01DX001 (ip), vehicle: carboxymethylcellulose (CMC), evaluated on day 60",302 % of control
same,T/C,"dose: 28.0 mg/kg/injection, schedule: Q01DX001 (ip), vehicle: Klucel (hydroxypropylcellulose) (HPC), evaluated on day 3","264, 265, 270, 342, 854, 875 % of control"
same,T/C,"dose: 28.0 mg/kg/injection, schedule: Q01DX001 (ip), vehicle: Klucel (hydroxypropylcellulose) (HPC), evaluated on day 60","265, 270, 342, 854, 875 % of control"
same,T/C,"dose: 43.0 mg/kg/injection, schedule: Q01DX001 (ip), vehicle: Klucel (hydroxypropylcellulose) (HPC), evaluated on day 3","626, 677, 695, 833, 1170 % of control"
same,T/C,"dose: 43.0 mg/kg/injection, schedule: Q01DX001 (ip), vehicle: Klucel (hydroxypropylcellulose) (HPC), evaluated on day 60","170, 626, 677, 695, 834 % of control"
same,T/C,"dose: 50.0 mg/kg/injection, schedule: Q01DX001 (ip), vehicle: carboxymethylcellulose (CMC), evaluated on day 45","602, 650, 823 % of control"
same,T/C,"dose: 50.0 mg/kg/injection, schedule: Q01DX001 (ip), vehicle: carboxymethylcellulose (CMC), evaluated on day 60","306, 673, 707, 792 % of control"
same,T/C,"dose: 57.0 mg/kg/injection, schedule: Q01DX001 (ip), vehicle: Klucel (hydroxypropylcellulose) (HPC), evaluated on day 3","555, 625, 817, 937, 1090 % of control"
same,T/C,"dose: 57.0 mg/kg/injection, schedule: Q01DX001 (ip), vehicle: Klucel (hydroxypropylcellulose) (HPC), evaluated on day 60","88, 555, 625, 818, 937 % of control"
same,T/C,"dose: 71.0 mg/kg/injection, schedule: Q01DX001 (ip), vehicle: Klucel (hydroxypropylcellulose) (HPC), evaluated on day 3","412, 439, 566, 629, 643 % of control"
same,T/C,"dose: 71.0 mg/kg/injection, schedule: Q01DX001 (ip), vehicle: Klucel (hydroxypropylcellulose) (HPC), evaluated on day 60","412, 439, 566, 630, 644 % of control"
CC(CN1CC(=O)NC(=O)C1)N1CC(=O)NC(=O)C1 (stereo not drawn),T/C,"dose: 500.0 mg/kg/injection, schedule: Q04DX003 (ip), vehicle: Klucel (hydroxypropylcellulose) (HPC), evaluated on day 5",143 % of control
same,T/C,"dose: 500.0 mg/kg/injection, schedule: Q04DX003 (ip), vehicle: Klucel (hydroxypropylcellulose) (HPC), evaluated on day 60",143 % of control
